Values from PubChem BioAssay AID1259265 (Sanger Institute, 2017).

Screen: 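Retest single siRNAs, four per gene, for boosting anchor drug effects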 (follow-up of hits)
System: SW620 human colorectal cancer cells
Reagent: single siRNA against human genes
Conditions: anchor drug given a day after transfection: BYL719 at 1 µM, cetuximab at 5 µg/ml, trametinib at 10 nM; DMSO alone as the comparison arm
Measurement: 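Viability of each well as a fraction of the non-targeting pool 2 control, mean of replicates; synergy score weighing the combined effect against siRNA and drug alone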
Direction: synergy score with trametinib: higher = stronger synergy (synthetic lethal) with trametinib; synergy score with BYL719: higher = stronger synergy (synthetic lethal) with BYL719; synergy score with cetuximab: higher = stronger synergy (synthetic lethal) with cetuximab
Rule for the call: 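Synergistic (synthetic lethal) when the synergy score tops 0.10 with trametinib, BYL719 or cetuximab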
In all, the deposit lists 160 reagents; shown is a part drawn at random. 31 of them (19%) count as active. 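Calls refer to single siRNAs; agreement across several siRNAs per gene and other cell lines is not shown.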 Unmarked entries are inactive. Reagents against one gene are numbered here. Not all columns of the deposit are shown. Not given: the amount of reagent, the time to read-out.

Against HUNK (GeneID 30811) #1, the values are synergy score with trametinib 0.00773; synergy score with BYL719 = 0.0252; synergy score with cetuximab -0.123. Against HUNK (GeneID 30811) #2, the values are synergy score with trametinib 0.115 (active); synergy score with BYL719 = -0.0354; synergy score with cetuximab -0.0473. HUNK (GeneID 30811) #3 scored synergy score with trametinib 0.0247; synergy score with BYL719 = 0.0364; synergy score with cetuximab -0.122. Against HUNK (GeneID 30811) #4, the values are synergy score with trametinib 0.111 (active); synergy score with BYL719 = 0.014; synergy score with cetuximab -0.0188. Against NLK (GeneID 51701) #1, the entry reads synergy score with trametinib -0.0919; synergy score with BYL719 = -0.253; synergy score with cetuximab -0.153. NLK (GeneID 51701) #2 scored synergy score with trametinib 0.121 (active); synergy score with BYL719 = -0.0243; synergy score with cetuximab 0.0161.

Against NLK (GeneID 51701) #3 the deposit lists synergy score with trametinib -0.209; synergy score with BYL719 = -0.306; synergy score with cetuximab -0.0702. Depletion of NLK (GeneID 51701) #4 gave: synergy score with trametinib -0.057; synergy score with BYL719 = -0.126; synergy score with cetuximab -0.0962. CSNK2A2 (GeneID 1459) #1 gave synergy score with trametinib -0.0472; synergy score with BYL719 = -0.192; synergy score with cetuximab -0.122. Silencing of CSNK2A2 (GeneID 1459) #2 resulted in: synergy score with trametinib -0.0555; synergy score with BYL719 = -0.0737; synergy score with cetuximab -0.0266. CSNK2A2 (GeneID 1459) #3 gave synergy score with trametinib 0.0948; synergy score with BYL719 = -0.103; synergy score with cetuximab -0.00213. For CSNK2A2 (GeneID 1459) #4, the values are synergy score with trametinib 0.0254; synergy score with BYL719 = -0.127; synergy score with cetuximab -0.0926.

Records listed so far with an active call:
HUNK (GeneID 30811) #2 — synergy score with trametinib: 0.115 (active); synergy score with BYL719: -0.0354; synergy score with cetuximab: -0.0473
HUNK (GeneID 30811) #4 — synergy score with trametinib: 0.111 (active); synergy score with BYL719: 0.014; synergy score with cetuximab: -0.0188
NLK (GeneID 51701) #2 — synergy score with trametinib: 0.121 (active); synergy score with BYL719: -0.0243; synergy score with cetuximab: 0.0161

Additional records follow.
After knock-down of IRAK3 (GeneID 11213) #1, the screen gave synergy score with trametinib -0.00789; synergy score with BYL719 = -0.402; synergy score with cetuximab -0.14. With knock-down of IRAK3 (GeneID 11213) #2, the screen gave synergy score with trametinib 0.0413; synergy score with BYL719 = -0.0567; synergy score with cetuximab -0.063. Knock-down of IRAK3 (GeneID 11213) #3 gave: synergy score with trametinib -0.151; synergy score with BYL719 = -0.293; synergy score with cetuximab -0.0945. Knock-down of IRAK3 (GeneID 11213) #4 resulted in: synergy score with trametinib -0.0198; synergy score with BYL719 = -0.129; synergy score with cetuximab -0.118. For NR2F2 (GeneID 7026) #1 the deposit lists synergy score with trametinib 0.0842; synergy score with BYL719 = -0.194; synergy score with cetuximab 0. With knock-down of NR2F2 (GeneID 7026) #2, the screen gave synergy score with trametinib 0.0179; synergy score with BYL719 = -0.128; synergy score with cetuximab -0.0491.

Against NR2F2 (GeneID 7026) #3 the deposit lists synergy score with trametinib -0.113; synergy score with BYL719 = -0.306; synergy score with cetuximab 0.0111. Against NR2F2 (GeneID 7026) #4 the deposit lists synergy score with trametinib 0.171 (active); synergy score with BYL719 = -0.0743; synergy score with cetuximab -0.0971. EPHA6 (GeneID 285220) #1 showed synergy score with trametinib 0.0811; synergy score with BYL719 = -0.209; synergy score with cetuximab -0.0915. EPHA6 (GeneID 285220) #2 gave synergy score with trametinib 0.153 (active); synergy score with BYL719 = -0.0255; synergy score with cetuximab 0.0578. Knock-down of EPHA6 (GeneID 285220) #3 came out at: synergy score with trametinib 0.0831; synergy score with BYL719 = -0.144; synergy score with cetuximab 0.077. EPHA6 (GeneID 285220) #4 showed synergy score with trametinib 0.079; synergy score with BYL719 = 0.0103; synergy score with cetuximab -0.0799.
